Common to all, as to experiment: co-IP
The target in assay [1] is T1, FLAG-tagged mouse APOBEC3 (pcDNA-FLAG-mA3) (mouse) (UniProt Q99J72).
T1 sequence: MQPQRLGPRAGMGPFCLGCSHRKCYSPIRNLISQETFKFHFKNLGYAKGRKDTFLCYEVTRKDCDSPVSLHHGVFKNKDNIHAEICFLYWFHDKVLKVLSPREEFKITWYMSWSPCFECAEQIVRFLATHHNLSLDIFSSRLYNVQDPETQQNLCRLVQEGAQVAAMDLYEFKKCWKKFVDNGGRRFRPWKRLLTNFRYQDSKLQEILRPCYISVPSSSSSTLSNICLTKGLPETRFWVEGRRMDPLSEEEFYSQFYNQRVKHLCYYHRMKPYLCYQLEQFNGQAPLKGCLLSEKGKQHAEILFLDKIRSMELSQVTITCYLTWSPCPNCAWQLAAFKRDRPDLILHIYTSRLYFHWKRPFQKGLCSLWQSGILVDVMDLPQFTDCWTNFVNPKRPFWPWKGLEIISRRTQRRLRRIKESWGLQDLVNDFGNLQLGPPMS

By UniProt entry, the sequences of proteins in these tests, tags left out.
UniProt Q9HC16: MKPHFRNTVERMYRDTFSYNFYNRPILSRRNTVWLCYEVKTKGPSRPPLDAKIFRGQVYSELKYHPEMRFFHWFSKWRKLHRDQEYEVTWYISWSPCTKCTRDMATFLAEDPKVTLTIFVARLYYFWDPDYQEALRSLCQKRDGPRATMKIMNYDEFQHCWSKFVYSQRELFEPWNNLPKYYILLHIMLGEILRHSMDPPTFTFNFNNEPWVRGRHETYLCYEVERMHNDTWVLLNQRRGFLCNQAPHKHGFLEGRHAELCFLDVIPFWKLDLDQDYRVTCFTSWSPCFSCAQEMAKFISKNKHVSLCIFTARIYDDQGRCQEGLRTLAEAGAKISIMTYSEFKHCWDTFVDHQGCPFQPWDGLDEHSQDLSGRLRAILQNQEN
UniProt O35286: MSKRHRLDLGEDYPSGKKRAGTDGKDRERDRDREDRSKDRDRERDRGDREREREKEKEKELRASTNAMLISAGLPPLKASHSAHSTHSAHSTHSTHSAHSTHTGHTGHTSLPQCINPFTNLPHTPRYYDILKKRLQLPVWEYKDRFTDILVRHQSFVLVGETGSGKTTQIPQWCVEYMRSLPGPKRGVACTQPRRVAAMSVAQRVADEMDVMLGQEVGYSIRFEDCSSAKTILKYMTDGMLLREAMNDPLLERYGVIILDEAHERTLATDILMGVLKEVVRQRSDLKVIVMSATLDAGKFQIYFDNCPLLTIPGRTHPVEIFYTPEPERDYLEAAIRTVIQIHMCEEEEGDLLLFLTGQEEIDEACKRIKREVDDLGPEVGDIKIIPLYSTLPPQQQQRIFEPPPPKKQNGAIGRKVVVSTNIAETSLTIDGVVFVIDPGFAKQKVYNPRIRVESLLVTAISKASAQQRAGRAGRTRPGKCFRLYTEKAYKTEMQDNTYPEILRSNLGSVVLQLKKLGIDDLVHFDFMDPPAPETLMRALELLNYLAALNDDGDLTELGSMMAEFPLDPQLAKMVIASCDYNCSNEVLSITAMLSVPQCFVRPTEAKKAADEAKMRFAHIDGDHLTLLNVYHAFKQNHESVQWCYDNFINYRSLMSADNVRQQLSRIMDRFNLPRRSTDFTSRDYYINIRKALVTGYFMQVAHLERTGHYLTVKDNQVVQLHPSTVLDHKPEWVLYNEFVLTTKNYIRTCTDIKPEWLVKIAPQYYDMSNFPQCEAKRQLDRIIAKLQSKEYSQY
UniProt O43143: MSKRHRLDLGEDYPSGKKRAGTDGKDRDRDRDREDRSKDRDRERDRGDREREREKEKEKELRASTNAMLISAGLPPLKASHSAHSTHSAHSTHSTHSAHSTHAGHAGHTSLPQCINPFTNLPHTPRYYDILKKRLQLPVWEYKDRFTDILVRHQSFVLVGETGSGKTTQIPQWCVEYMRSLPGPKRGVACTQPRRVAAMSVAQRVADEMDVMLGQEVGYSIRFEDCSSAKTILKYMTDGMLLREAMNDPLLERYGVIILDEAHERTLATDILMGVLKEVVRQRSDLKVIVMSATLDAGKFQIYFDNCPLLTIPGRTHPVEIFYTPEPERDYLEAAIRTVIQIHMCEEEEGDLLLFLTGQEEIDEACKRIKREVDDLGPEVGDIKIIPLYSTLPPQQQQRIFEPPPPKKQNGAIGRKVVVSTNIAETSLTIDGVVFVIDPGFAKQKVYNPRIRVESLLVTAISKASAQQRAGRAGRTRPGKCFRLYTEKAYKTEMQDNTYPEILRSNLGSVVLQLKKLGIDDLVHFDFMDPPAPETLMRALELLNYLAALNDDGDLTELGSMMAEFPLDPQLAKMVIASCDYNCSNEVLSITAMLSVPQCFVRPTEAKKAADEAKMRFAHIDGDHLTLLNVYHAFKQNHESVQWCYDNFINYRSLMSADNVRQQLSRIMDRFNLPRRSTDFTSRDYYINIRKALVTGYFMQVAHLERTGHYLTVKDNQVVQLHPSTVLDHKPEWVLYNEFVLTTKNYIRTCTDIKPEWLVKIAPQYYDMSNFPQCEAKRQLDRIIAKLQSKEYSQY
UniProt P67809: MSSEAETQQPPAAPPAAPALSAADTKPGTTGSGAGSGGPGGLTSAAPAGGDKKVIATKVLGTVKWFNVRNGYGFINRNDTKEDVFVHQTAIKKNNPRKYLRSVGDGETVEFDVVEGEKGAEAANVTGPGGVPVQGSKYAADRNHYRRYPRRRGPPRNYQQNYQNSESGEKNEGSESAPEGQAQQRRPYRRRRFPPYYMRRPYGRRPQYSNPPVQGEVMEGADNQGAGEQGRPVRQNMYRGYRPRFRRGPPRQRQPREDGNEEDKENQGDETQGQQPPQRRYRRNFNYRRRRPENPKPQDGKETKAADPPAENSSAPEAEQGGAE

Assay [2] concerns the target T1, FLAG-tagged mouse APOBEC3 (pcDNA-FLAG-mA3) (mouse). The source holds these as a separate data set.
The target of assay [3] is T2, mouse APOBEC3, endogenous in MutuDC1940 (muDC) cells (mouse (endogenous in MutuDC1940)) (UniProt Q99J72).
T2 sequence: T1 sequence

Assay [4] deals with FLAG-tagged human APOBEC3G (human) (UniProt Q9HC16).
The target in assay [5] is DHX15, endogenous in MutuDC1940 (muDC) cells (mouse (endogenous in MutuDC1940)) (UniProt O35286).

Like-named read-outs stand apart in the source and are kept apart here. No constants are given. Whether binding was seen depends on the method and setting. In cells and extracts the contact can be indirect. Some binding calls cover weakened binding; strength is not graded here. For some of these results: Where a sequence is shown, tags or fusion partners need not be part of it.

In the case of “DEAH-box helicase 15 (DHX15), endogenous in 293T cells (from UniProt O43143 1-795)”, the binding entry in assay [1] and in assay [2] was “binds” throughout.
For “DHX15 in the mAPOBEC3 domain-mapping co-IPs ("the DHX15 vector") (from UniProt O43143 1-795)”, in assay [2], the binding result was “binds”.
As for “DHX15, endogenous in MutuDC1940 (muDC) cells (from UniProt O35286 1-795)”, the binding result in assay [3] is given as “binds”.
Regarding “Y-box binding protein 1 (YB1), endogenous in 293T cells (from UniProt P67809 1-324)”, the binding result in assay [4] and in assay [2] was “binds” each time.

B1: mouse APOBEC3, endogenous in MutuDC1940 (muDC) cells (protein, UniProt Q99J72 1-440)
chain: T1 sequence
As for B1, the binding entry in assay [5] was “binds”.

The record behind these values is paper doi:10.1101/2024.08.19.608612.
